No constants are given. Whether binding was seen depends on the method and setting. Some results given as binding are weak or reduced against the parent protein; the word gives no strength.
Target: His-tagged ISD11 (pZM6), co-expressed with IscS (human) (UniProt Q9HD34)
Test: SEC; analytical SEC at 280 nm of 30 μM co-expressed and co-purified ISD11-His6 (pZM6) and IscS (pSL219), compared with isolated IscS

Protein sequences, listed by entry. Tags and fused reporters are not part of them.
UniProt Q9HD34: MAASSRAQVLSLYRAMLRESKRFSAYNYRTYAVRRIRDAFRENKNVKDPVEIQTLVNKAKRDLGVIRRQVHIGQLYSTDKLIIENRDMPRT
UniProt P0A6B7: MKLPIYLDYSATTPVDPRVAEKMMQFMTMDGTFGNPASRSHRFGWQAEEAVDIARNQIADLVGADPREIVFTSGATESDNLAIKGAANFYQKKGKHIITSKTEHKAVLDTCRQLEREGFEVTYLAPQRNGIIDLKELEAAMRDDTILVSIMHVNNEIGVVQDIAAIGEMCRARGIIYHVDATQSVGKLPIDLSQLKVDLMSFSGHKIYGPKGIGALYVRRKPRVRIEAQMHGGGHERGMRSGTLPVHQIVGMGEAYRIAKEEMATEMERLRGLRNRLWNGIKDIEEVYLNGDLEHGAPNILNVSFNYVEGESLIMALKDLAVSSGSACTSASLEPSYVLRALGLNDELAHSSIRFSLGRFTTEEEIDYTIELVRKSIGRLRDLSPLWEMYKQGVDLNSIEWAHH

binding: binds
Substance: untagged IscS (pSL219), co-expressed with His-ISD11 (from UniProt P0A6B7 1-404) (enzyme)

From PMC4948766
